This is an account of results in article PMC4808009.

Amino acid sequences for entries named in this document (tags omitted). Residues count along the entry.
UniProt P21860, residues 20-1342: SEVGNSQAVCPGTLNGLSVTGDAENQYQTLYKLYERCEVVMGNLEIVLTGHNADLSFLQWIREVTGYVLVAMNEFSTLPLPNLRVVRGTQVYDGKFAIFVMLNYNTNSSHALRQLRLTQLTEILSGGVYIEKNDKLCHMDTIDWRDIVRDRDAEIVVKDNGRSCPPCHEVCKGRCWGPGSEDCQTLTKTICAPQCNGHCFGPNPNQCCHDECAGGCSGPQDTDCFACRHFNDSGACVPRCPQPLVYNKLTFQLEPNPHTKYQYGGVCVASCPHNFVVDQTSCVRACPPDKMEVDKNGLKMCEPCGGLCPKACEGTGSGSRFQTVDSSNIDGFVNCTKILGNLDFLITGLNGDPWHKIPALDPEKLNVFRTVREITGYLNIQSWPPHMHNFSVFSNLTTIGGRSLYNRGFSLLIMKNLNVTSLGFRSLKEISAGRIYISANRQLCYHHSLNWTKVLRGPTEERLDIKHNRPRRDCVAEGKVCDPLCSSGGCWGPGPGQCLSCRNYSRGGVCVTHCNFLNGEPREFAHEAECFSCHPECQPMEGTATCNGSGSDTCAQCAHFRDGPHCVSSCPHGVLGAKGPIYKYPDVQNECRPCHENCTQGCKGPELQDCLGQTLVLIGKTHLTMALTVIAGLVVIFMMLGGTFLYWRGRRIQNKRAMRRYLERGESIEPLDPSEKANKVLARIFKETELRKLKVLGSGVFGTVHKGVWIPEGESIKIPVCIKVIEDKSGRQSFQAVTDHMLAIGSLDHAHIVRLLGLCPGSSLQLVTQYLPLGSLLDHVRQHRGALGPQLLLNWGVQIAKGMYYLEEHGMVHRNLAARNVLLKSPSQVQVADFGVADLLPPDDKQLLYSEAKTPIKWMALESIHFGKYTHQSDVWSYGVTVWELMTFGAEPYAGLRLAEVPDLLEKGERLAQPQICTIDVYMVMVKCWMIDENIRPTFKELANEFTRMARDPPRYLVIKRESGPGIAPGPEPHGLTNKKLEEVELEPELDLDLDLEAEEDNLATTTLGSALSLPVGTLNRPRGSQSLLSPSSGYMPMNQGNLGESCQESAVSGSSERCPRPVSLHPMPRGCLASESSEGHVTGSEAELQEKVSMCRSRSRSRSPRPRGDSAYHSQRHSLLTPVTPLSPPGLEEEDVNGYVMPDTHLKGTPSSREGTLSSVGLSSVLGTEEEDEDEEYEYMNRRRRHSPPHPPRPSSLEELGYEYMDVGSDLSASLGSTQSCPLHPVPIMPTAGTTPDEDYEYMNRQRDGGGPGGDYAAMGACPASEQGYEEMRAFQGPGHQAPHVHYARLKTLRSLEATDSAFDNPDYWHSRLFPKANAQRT
UniProt P07949, residues 29-1114: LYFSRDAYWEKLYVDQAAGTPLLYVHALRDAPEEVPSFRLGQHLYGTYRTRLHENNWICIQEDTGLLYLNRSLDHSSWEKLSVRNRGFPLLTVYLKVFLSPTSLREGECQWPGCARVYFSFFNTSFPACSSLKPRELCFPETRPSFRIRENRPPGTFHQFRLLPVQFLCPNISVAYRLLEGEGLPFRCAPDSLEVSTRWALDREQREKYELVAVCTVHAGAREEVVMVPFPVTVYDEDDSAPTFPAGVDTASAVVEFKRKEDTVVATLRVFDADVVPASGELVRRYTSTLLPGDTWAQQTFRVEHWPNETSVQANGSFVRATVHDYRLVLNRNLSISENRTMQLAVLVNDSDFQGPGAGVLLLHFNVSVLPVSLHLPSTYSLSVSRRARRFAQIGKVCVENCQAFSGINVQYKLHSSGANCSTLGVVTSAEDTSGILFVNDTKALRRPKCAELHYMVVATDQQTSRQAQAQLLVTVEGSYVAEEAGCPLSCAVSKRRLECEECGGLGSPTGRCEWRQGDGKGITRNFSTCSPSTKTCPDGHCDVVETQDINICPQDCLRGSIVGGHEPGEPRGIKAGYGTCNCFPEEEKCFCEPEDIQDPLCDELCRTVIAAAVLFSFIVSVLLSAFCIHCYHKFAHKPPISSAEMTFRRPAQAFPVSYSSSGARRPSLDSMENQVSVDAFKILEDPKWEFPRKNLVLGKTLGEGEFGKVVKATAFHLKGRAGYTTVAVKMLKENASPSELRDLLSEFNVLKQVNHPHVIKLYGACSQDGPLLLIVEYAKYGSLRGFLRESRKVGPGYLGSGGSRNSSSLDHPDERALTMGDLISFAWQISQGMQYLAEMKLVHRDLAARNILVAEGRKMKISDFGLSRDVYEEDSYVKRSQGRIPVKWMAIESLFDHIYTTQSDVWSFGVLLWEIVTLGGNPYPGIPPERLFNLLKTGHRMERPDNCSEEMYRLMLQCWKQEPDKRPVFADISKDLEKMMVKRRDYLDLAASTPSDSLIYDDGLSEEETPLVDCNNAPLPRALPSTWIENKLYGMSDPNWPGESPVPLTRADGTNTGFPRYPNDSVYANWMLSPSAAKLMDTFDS

No constants are given. Whether binding was seen depends on the method and setting. Binding seen in cells or lysates may run through a third protein. Some results given as binding are weak or reduced against the parent protein; the word gives no strength.

The target in experiment [1] is ERBB3-EGFP (UniProt P21860). Nature of the experiment: co-IP; GFP-TRAP beads on lysate of ERBB3-EGFP transfected MLS cell line 1765-92, 24 hours after transfection; lysis buffer 25 mM Tris pH 7.5, 150 mM KCl, 1.5 mM MgCl, 1 mM DTT, 0.5% NP40, diluted to 0.2% NP40; RET detected by Western blot.
Experiment [2] deals with ERBB3 receptor tyrosine kinase (human (endogenous in MLS cell lines)) (UniProt P21860). Nature of the experiment: proximity ligation; DuoLink II kit in MLS cells; rabbit and goat specific probes with ERBB3 antibody (G-4) and RET goat antibody (C-19); confocal microscopy; signals in cytoplasm and nuclei.

Turning to “RET receptor tyrosine kinase (from UniProt P07949 29-1114)”, the binding entry in experiment [1] and in experiment [2] was “binds” in each case.
